The text below walks through data of publication PMC12040169 (PLOS Biology, 2025).

The list shows a part of the results.

The subject of this assay is T1, CTL2-GFP (C. trachomatis L2/434/Bu, GFP-expressing).
T1 construct: L2/434/Bu, GFP-expressing
Further details: species or system HeLa; Intracellular C. trachomatis growth in HeLa cells, bulk GFP fluorescence relative to DMSO. To be noted: bulk GFP, single well; 28.5 h, 10 µM; inhibitor.
With `Cc1nn(C)c(Cl)c1S(=O)(=O)NCc1ccc(C(F)(F)F)c(F)c1` [CBK062111], the “% of control remaining” value is 108.416%. Consider `CC(=O)c1ccc(-c2ccc(C(=O)NCCc3ccc(S(N)(=O)=O)cc3)c(N(C)C(C)=O)n2)s1` [CBK076621], for which the “% of control remaining” value worked out at 152.934%.

For the compound `CS(=O)(=O)Nc1ccc(C(=O)N2CC(=O)Nc3ccccc32)cc1` [CBK269827], the “% of control remaining” value was 90.6079%. For `Cc1c(-c2cccc(Cl)c2)nc2ccccc2c1C(=O)NCCc1ccc(S(N)(=O)=O)cc1` [CBK267784], the “% of control remaining” value was 105.679%. On to `Clc1ccc(CN2CCN(c3nccnc3OCc3cccnc3)CC2)cc1Cl` [CBK083128T], for which the “% of control remaining” value is 117.28%. The same measure for `Cc1ccc(C(=O)Nc2cccc(-c3nc4ncccc4o3)c2C)cc1[N+](=O)[O-]` [CBK262793]: 118.14%; for `Cc1cc(=O)n(CC(=O)N2CCC3(CCCN(C(C)C)C3=O)C2)nc1C` (stereo not drawn) [CBK307482]: 113.599%. Take `NC(=O)C(=O)c1c(-c2ccccc2)cc2ccccn12` [CBK288466]: the “% of control remaining” value came out at 121.602%. As to `Cc1ccc(-c2nc(C3CCCN(C(=O)NC4CCCCC4)C3)n3ccccc23)cc1` (stereo not drawn) [CBK047241], the “% of control remaining” value is 88.3827%. Take `CC(C)n1c(NCc2nc3ccccc3n2C)nc2ccccc21` [CBK265571]: the “% of control remaining” value was 120.134%. Take `COC(=O)c1c(NC(=S)Nc2ccc(Br)cn2)sc2c1CCC(C)C2` (stereo not drawn) [CBK266962]: the “% of control remaining” value worked out at 145.383%. For the compound `Nc1cc2ccccc2c(-c2cccc(C(F)(F)F)c2)n1` [CBK085721], the “% of control remaining” value turned out to be 96.9189%. `O=C(CSc1nc(-c2ccco2)cc(C(F)(F)F)n1)Nc1ccc(C(=O)N2CCCCC2)cc1` [CBK266238]: the “% of control remaining” value is recorded as 127.714%. As for `O=C(NCCc1ccc(Cl)cc1)C1CCN(C(=O)c2ccc3nsnc3c2)C1` (stereo not drawn) [CBK285553], the “% of control remaining” value is 113.397%. Take `COC(=O)Nc1nc2cc(F)c(Cl)cc2[nH]1` [CBK026927]: the “% of control remaining” value worked out at 135.263%. As to `c1coc(-c2nc3cnccn3c2NC2CCCC2)c1` [CBK283678], the “% of control remaining” value was found to be 157.163%.

For the compound `Cc1cc(I)ccc1NC(=O)CCC(=O)N/N=C/c1ccco1` [CBK261991], the “% of control remaining” value worked out at 107.583%. The same measure for `CC(Oc1cccc(F)c1)C(=O)N(C)Cc1cccnc1` (stereo not drawn) [CBK304841]: 150.755%. Regarding `Cc1ccc(S(=O)(=O)N2C[C@H]3C[C@H](NC(=O)C4CC4C)[C@H]3C2)cc1` (stereo partly drawn) [CBK285318], the “% of control remaining” value amounted to 105.618%. `CC(C)CC(=O)N1CCCn2nc(-c3ccncc3)cc2C1` [CBK288606]: the “% of control remaining” value came to 109.034%. Consider `CN1CCN(CCC(=O)Nc2ccc(Cl)c(C(F)(F)F)c2)CC1` [CBK265995], for which the “% of control remaining” value turned out to be 101.283%. For the compound `Cn1ncc(N2CCC(CNC(=O)COc3ccccc3)C2)cc1=O` (stereo not drawn) [CBK306810], the “% of control remaining” value is 137.216%. In the case of `c1ccc(C(CCN2CCC[C@@H]2CN2CCCC2)c2ccccc2)cc1` [CBK149109], the “% of control remaining” value came out at 151.018%. Regarding `COc1cccc(C(=O)N2CCC(Cc3ccc(-c4ccccc4)cc3)(C(N)=O)CC2)c1` [CBK285770], the “% of control remaining” value was 109.112%. Under `COc1cc(/C=C/C(=O)NCc2ccccn2)cc(OC)c1OC` [CBK264752] stands 131.455%; under `COc1ccc(C(NC(=O)CC2CCN(c3nc(C)cc(C)n3)CC2)C2CC2)cc1` (stereo not drawn) [CBK285994], 118.763%. On to `C#CCN(C1CCc2ccccc21)S(=O)(=O)c1cc(C(=O)NC)n(C)c1` (stereo not drawn) [CBK306235], for which the “% of control remaining” value is 99.332%. For `CC(=O)c1cccc(NC(=O)N(Cc2ccco2)CC2CCCO2)c1` (stereo not drawn) [CBK304467], the “% of control remaining” value was 112.651%. For `C(=N\N=C\c1ccccn1)/c1ccccn1` [CBK015627], the “% of control remaining” value is 148.419%.

For `O=S(=O)(NCCSc1ccccn1)c1ccc(Br)cc1` [CBK264001], the “% of control remaining” value turned out to be 100%. As for `O=C(NCc1ccccn1)c1cc2cc(Cl)ccc2[nH]1` [CBK107265], the “% of control remaining” value came out at 101.451%. Consider `COc1cc(CN2CCC(C)CC2)c([N+](=O)[O-])cc1OC` [CBK261911], for which the “% of control remaining” value was 100%. The same measure for `COC(=O)C1CCN(Cc2nc3sc4c(c3c(=O)[nH]2)CCC(C)C4)CC1` (stereo not drawn) [CBK304978]: 79.1308%.

`Cc1nn(C)c(C)c1CCC(=O)NCC(C)Oc1ccccc1F` (stereo not drawn) [CBK305194]: the “% of control remaining” value turned out to be 112.056%. As to `CC(C)C(=O)Nc1cc2ccccc2c(-c2ccc(N(C)C)cc2)n1` [CBK085776], the “% of control remaining” value amounted to 125.282%. On to `Cc1noc(C)c1CC(=O)NC(C)c1nc2ccccc2s1` (stereo not drawn) [CBK281467], for which the “% of control remaining” value is given as 86.0319%. Under `CN(CCNC(=O)Nc1ccc2c(c1)oc(=O)n2C)C1CCCC1` [CBK305503] stands 101.389%. Take `Cc1cc(OCC(=O)NCCCN2CCOCC2)cc(C)c1Br` [CBK265082]: the “% of control remaining” value is given as 100%. The same measure for `CCOC(=O)c1ccccc1NC(=O)N(Cc1ccc2ccccc2c1)CC1CCNCC1` [CBK049769]: 88.3226%. Regarding `Cc1cccc(C)c1NC(=O)CCC(=O)OCc1ccccc1` [CBK267158], the “% of control remaining” value was found to be 158.682%. As to `CCC(CO)Nc1cncc(-c2cccs2)n1` (stereo not drawn) [CBK065534], the “% of control remaining” value was 81.64%. Consider `CC(C)(CC(=O)Nc1sc2c(c1C(=O)O)CCC2)CC(=O)Nc1sc2c(c1C(=O)O)CCC2` [CBK296100], for which the “% of control remaining” value amounted to 154.198%. `Nc1ncc(-c2cncnc2)nc1N1CCOCC1` [CBK063422]: the “% of control remaining” value is recorded as 74.3141%. Consider `O=C(c1cc(F)c(F)cc1F)N1CCC2(CCCN(Cc3cc(=O)[nH]c(=O)[nH]3)C2)C1` (stereo not drawn) [CBK132010], for which the “% of control remaining” value was 96.9221%. Turning to `CCOC(=O)c1ccc(S(=O)(=O)Nc2cc(C(=O)O)ccc2F)cc1` [CBK295308], the “% of control remaining” value amounted to 180.291%. Under `C=CCSc1nc2sc3c(c2c(=O)[nH]1)CCCC3` [CBK287344] stands 103.287%. On to `COc1ccc(Cl)cc1S(=O)(=O)NC(C)C(=O)O` (stereo not drawn) [CBK270233], for which the “% of control remaining” value is on record as 110.789%.

Consider `CCCCC12CN3CC(C)(CN(C1)C31C(=O)Nc3ccc(Br)cc31)C2=O` (stereo not drawn) [CBK267348], for which the “% of control remaining” value came out at 139.463%. As to `O=C(O)CCCCCN1C(=O)/C(=C/c2ccc(O)c(O)c2)SC1=S` [CBK262771], the “% of control remaining” value was 100%. On to `NS(=O)(=O)c1ccc(S(=O)(=O)NCCc2c[nH]c3ccccc23)cc1` [CBK266691], for which the “% of control remaining” value is 176.584%.

For the compound `CCCc1[nH]ncc1C(=O)N1CCN(c2ccnc(N(C)C)n2)CC1` [CBK305406], the “% of control remaining” value is 78.6633%.

`CS(=O)(=O)N(Cc1ccccc1)c1ccc(C(=O)Nc2ccc(-c3ccccc3)cc2)cc1` [CBK262754]: the “% of control remaining” value is on record as 127.222%.

Consider `Cc1occc1C(=O)NC(C)c1ccc2c(c1)OCO2` (stereo not drawn) [CBK268153], for which the “% of control remaining” value is 107.472%.

For the compound `COc1ccc(CC(=O)Nc2ccc(-c3nnc(-c4ccccc4)o3)cc2)cc1OC` [CBK267414], the “% of control remaining” value was 136.651%.

Consider `COc1ccc2c(c1)c(C(NCc1cccc(C(F)(F)F)c1)C(N)=O)nn2Cc1ccccc1` (stereo not drawn) [CBK010715], for which the “% of control remaining” value turned out to be 118.092%. Regarding `O=C(CN1C(=O)N2CCN=C2c2ccccc21)NC1CC1` [CBK283958], the “% of control remaining” value is reported as 138.149%. For `COc1ccc2c(c1)OC1(CCN(CC(O)c3ccc(-c4ccccc4)cc3)CC1)CC2O` (stereo not drawn) [CBK286346], the “% of control remaining” value is reported as 131.014%. With `Cc1sc(NC(=O)CN(Cc2cnn(C)c2)C(C)C)c(C#N)c1C` [CBK306303], the “% of control remaining” value is on record as 132.627%. Take `COC(=O)c1sccc1NC(=O)Cn1nnc(-c2ccc(C)cc2)n1` [CBK267183]: the “% of control remaining” value is 170.766%. With `Brc1ccc2[nH]c3c(c2c1)CCOC31CCN(CC2CCCCO2)CC1` (stereo not drawn) [CBK040648], the “% of control remaining” value is 100%.

`CCc1nn(CC(=O)N(CC)CC)c(=O)c2cc3occc3n12` [CBK283656]: the “% of control remaining” value was 91.6612%.

With `Cc1ccc(NC(=O)Nc2cc(S(N)(=O)=O)ccc2C)cc1` [CBK093428], the “% of control remaining” value worked out at 96.5145%. As to `Cc1onc(-c2ccccc2Cl)c1C(=O)N(C)C` [CBK160325], the “% of control remaining” value is 195.576%. For the compound `O=C(Nc1ccccc1-n1cnnn1)c1ccccc1Cl` [CBK287994], the “% of control remaining” value came out at 132.62%.

In the case of `N#CCCN(C(=O)NCCCN1CCCC1=O)C1CCCCC1` [CBK156379], the “% of control remaining” value was 170.589%. Consider `CS(=O)(=O)N1CCCC(C(=O)Nc2nccs2)C1` (stereo not drawn) [CBK287834], for which the “% of control remaining” value turned out to be 119.544%.

`O=C(Nc1ccc(C(=O)O)c(O)c1)c1ccc(Br)o1` [CBK270053]: the “% of control remaining” value was found to be 158.418%.

Regarding `CCOc1ccccc1C(=O)Nc1cc(C)c2c(=O)oc3ccccc3c2n1` [CBK291240], the “% of control remaining” value amounted to 143.036%. Under `Cc1nn(C)cc1S(=O)(=O)Nc1cccc(-c2ccc(F)cc2)c1` [CBK282788] stands 101.622%. Regarding `O=C1c2ccccc2C(=O)N1CC1c2ccccc2CCN1S(=O)(=O)c1cccc2nsnc12` (stereo not drawn) [CBK261133], the “% of control remaining” value was determined as 114.82%. For `O=[N+]([O-])c1ccccc1S(=O)(=O)N1CCN(S(=O)(=O)c2ccc(F)cc2)CC1` [CBK264236], the “% of control remaining” value was 110.467%. `O=C(C1CC1)N1C[C@@H](c2ccccc2)[C@H](c2cc(C(F)F)[nH]n2)C1` [CBK284791]: the “% of control remaining” value stood at 157.72%. `CCC(NC1CCc2nc(COC)nn2C1)c1ccccc1O` (stereo not drawn) [CBK305132]: the “% of control remaining” value came out at 116.938%.

Regarding `O=C(Cc1cc(F)c(F)c(F)c1)Nc1ccc2[nH]ccc2c1` [CBK159684], the “% of control remaining” value is listed as 124.554%. The same measure for `CC1CCc2c(sc(NC(=O)CCC(=O)O)c2C(=O)N2CCOCC2)C1` (stereo not drawn) [CBK307550]: 151.828%; for `O=C(c1cccs1)N1C[C@H](c2ccc(F)cc2)[C@H]2CN(Cc3ccc(F)cc3)CC[C@H]21` [CBK285545]: 122.668%; for `CC(C)c1nc(NCc2nnc(C(C)C)n2C)nc(N(C)C)n1` [CBK306402]: 119.147%. Under `Cc1nn(CC(=O)N(C)C(C)c2ccncn2)c(=O)c2ccccc12` (stereo not drawn) [CBK307669] stands 124.844%.
